Here are results for 67 molecules from US20140038203A1, “METHODS FOR DETECTING OR PREDICTING KIDNEY DISEASE” (MUSC FOUNDATION FOR RESEARCH DEVELOPMENT, priority 2012, published 2014).

By UniProt entry, the sequences of proteins in these tests, tags left out. Where a name states a change or a piece, a line headed by the entry shows the natural chain unless it says otherwise.
UniProt Q02747: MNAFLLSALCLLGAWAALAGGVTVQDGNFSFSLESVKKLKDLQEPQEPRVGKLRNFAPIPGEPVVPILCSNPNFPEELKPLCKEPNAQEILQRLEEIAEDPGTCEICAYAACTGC

The nature of data set [1]: RRT study: LC-MS/MS urinary proteomics, AKI after cardiac surgery, RRT vs No RRT. Also on record: species or system human. Particulars: for Mean No RRT / Mean RRT: urine; for Mean No RRT: AKI patients who did not require RRT (n=6); for Mean RRT: AKI patients who required RRT (n=6).
A short description of data set [2]: Candidate marker selection across the three proteomic studies (FIG. 8). Particulars: inventors' proteomic studies.
Setting [3] is: direction of differential abundance, patients who did vs did not require RRT/dialysis.
[4] abbreviates: patients who did vs did not require RRT/dialysis.
Setting [5] is: RRT vs No RRT, positive = elevated in RRT group.
Setting [6] is: direction of urinary abundance, patients who did vs did not require RRT/dialysis.
Setting [7] is: patients who did vs did not require RRT/dialysis, read with the Up or Down column.

For the molecule “Hepcidin: urinary protein mediating intracellular iron sequestration”, the “Up or Down” value in data set [1] (setting [3]) is “Down”. In data set [1] (setting [4]), the “Mean Fold Change” value is reported as 1.093. In data set [2], the “change of the protein in urine in AKI” value was “decrease”.
For “Epidermal growth factor: 53 amino acid protein; portion of pro-EGF precursor identified as urine biomarker”, the “change of the protein in urine in AKI” value in data set [2] is listed as “decrease”.
Regarding “Superoxide diamutase [Cu—Zn]: urinary protein, Uniprot P00441”, in data set [1] (setting [5]), the “Mean Fold Change” value stood at 2.367. The “Up or Down” value in data set [1] (setting [6]) is on record as “Up”. Also, the “Mean Fold Change” value in data set [1] (setting [7]) is given as 4.733. Also, in data set [1], the “Mean No RRT” value was 10.10 normalized spectral counts and the “Mean RRT” value was 23.91 normalized spectral counts.
For “Ig kappa chain V-III region NG9 (Fragment)”, the “Up or Down” value in data set [1] (setting [3]) was “Down”. Further, the “Mean Fold Change” value in data set [1] (setting [4]) is 1.521.
In the case of “Insulin-like growth factor-binding protein 7”, the “Up or Down” value in data set [1] (setting [6]) was “Up”. Further, in data set [1] (setting [7]), the “Mean Fold Change” value stood at 1.134.
For “Latent-transforming growth factor beta-binding protein 1” the same measures were “Up” and 1.056.
The corresponding values for Cathepsin Z are “Up” and 1.524.
Take Lipocalin-1: the “Up or Down” value in data set [1] (setting [3]) is given as “Down”. The “Mean Fold Change” value in data set [1] (setting [4]) was 1.421.
The corresponding values for Ribonuclease pancreatic are “Down” and 1.075.
Consider Ig lambda chain V-I region HA, for which the “Up or Down” value in data set [1] (setting [6]) is recorded as “Up”. Moreover, the “Mean Fold Change” value in data set [1] (setting [7]) is 1.023.
Regarding “Epididymai secretory protein E1: urinary protein, Uniprot P61916”, the “Mean Fold Change” value in data set [1] (setting [5]) stood at 3.279. In data set [1], the “Mean No RRT” value was 3.17 normalized spectral counts and the “Mean RRT” value was 10.39 normalized spectral counts.
On to Fatty acid-binding protein, heart, for which, in data set [1] (setting [6]), the “Up or Down” value is recorded as “Up”. Moreover, in data set [1] (setting [7]), the “Mean Fold Change” value was 4.242.
The corresponding values for Complement factor B are “Up” and 2.069.
For Transthyretin the same measures were “Up” and 14.52.
The corresponding values for Epididymal secretory protein E1 are “Up” and 4.918.
With Platelet glycoprotein VI, the “Up or Down” value in data set [1] (setting [3]) is reported as “Down”. Moreover, the “Mean Fold Change” value in data set [1] (setting [4]) turned out to be 2.277.
Regarding Hemoglobin subunit beta, the “Up or Down” value in data set [1] (setting [6]) is on record as “Up”. The “Mean Fold Change” value in data set [1] (setting [7]) is listed as 2.992.
For the molecule Olfactomedin-4, in data set [1] (setting [3]), the “Up or Down” value is given as “Down”. Besides, the “Mean Fold Change” value in data set [1] (setting [4]) is listed as 1.426.
Consider Metalloproteinase inhibitor 1, for which the “Up or Down” value in data set [1] (setting [6]) is reported as “Up”.
Take Plasminogen: in data set [1] (setting [6]), the “Up or Down” value was “Up”. Further, the “Mean Fold Change” value in data set [1] (setting [7]) is recorded as 5.147.
As for Alpha-2-macroglobulin, the “Up or Down” value in data set [1] (setting [6]) was “Up”. Besides, the “Mean Fold Change” value in data set [1] (setting [7]) stood at 4.361.
Regarding “Beta-defensin 1 (DHYNCVSSGGQCLYSACPIFTKIQGTCYRGKAKCCK; UniProt P60022 33-68, looked up)”, the “Up or Down” value in data set [1] (setting [3]) is recorded as “Down”. In addition, the “Mean Fold Change” value in data set [1] (setting [4]) is listed as 1.942.
For Agrin the same measures were “Down” and 1.856.
Consider Carbonic anhydrase 1, for which the “Up or Down” value in data set [1] (setting [6]) is reported as “Up”. Besides, in data set [1] (setting [7]), the “Mean Fold Change” value was 2.211.
The corresponding values for Antithrombin-III are “Up” and 3.245.
For “Glyceraldehyde-3-phosphate dehydrogenase” the same measures were “Up” and 3.688.
As to Prothymosin alpha, the “Up or Down” value in data set [1] (setting [6]) was “Up”. The “Mean Fold Change” value in data set [1] (setting [7]) was determined as 9.757.
On to Peptidyl-prolyl cis-trans isomerase A, for which, in data set [1] (setting [6]), the “Up or Down” value is reported as “Up”. In addition, the “Mean Fold Change” value in data set [1] (setting [7]) amounted to 2.057.
Desmocollin-2: the “Up or Down” value in data set [1] (setting [3]) is reported as “Down”. Moreover, the “Mean Fold Change” value in data set [1] (setting [4]) stood at 1.357.
Take “Low-density lipoprotein receptor-related protein 2”: in data set [1] (setting [6]), the “Up or Down” value is listed as “Up”. Also, the “Mean Fold Change” value in data set [1] (setting [7]) was determined as 1.6173.
For Ig kappa chain V-I region Wes the same measures were “Up” and 2.048.
As for “Metallothionein-2: urinary protein, Uniprot P02795 (+2)”, in data set [1] (setting [5]), the “Mean Fold Change” value amounted to 13.47. The “Up or Down” value in data set [1] (setting [6]) is on record as “Up”. In data set [1] (setting [7]), the “Mean Fold Change” value amounted to 22.46. Further, in data set [1], the “Mean No RRT” value is listed as 1.43 normalized spectral counts and the “Mean RRT” value is given as 19.25 normalized spectral counts.
As for Gelsolin, the “Up or Down” value in data set [1] (setting [6]) is on record as “Up”. The “Mean Fold Change” value in data set [1] (setting [7]) is reported as 1.172.
The corresponding values for Ig heavy chain V-III region GAL are “Up” and 11.56.
As for Copper transport protein ATOX1, in data set [1] (setting [6]), the “Up or Down” value is on record as “Up”.
For “Gamma-interferon-inducible lysosomal thiol reductase”, the “Up or Down” value in data set [1] (setting [3]) was “Down”. In addition, the “Mean Fold Change” value in data set [1] (setting [4]) amounted to 1.44.
As to “Deleted in malignant brain tumors 1 protein”, the “Up or Down” value in data set [1] (setting [6]) is “Up”.
For Kallikrein-1, the “Up or Down” value in data set [1] (setting [3]) is “Down”. For the same molecule, the “Mean Fold Change” value in data set [1] (setting [4]) is 2.957.
For Apolipoprotein A-I, the “Up or Down” value in data set [1] (setting [6]) was “Up”. For the same molecule, in data set [1] (setting [7]), the “Mean Fold Change” value is 14.21.
Regarding “Submaxillary gland androgen-regulated protein 3B (QRGPRGPYPPGPLAPPQPFGPGFVPPPPPPPYGPGRIPPPPPAPYGPGIFPPPPPQP; UniProt P02814 23-79, looked up)”, in data set [1] (setting [3]), the “Up or Down” value is given as “Down”. In addition, the “Mean Fold Change” value in data set [1] (setting [4]) came to 1.078.
Turning to Ig lambda-2 chain C regions, the “Up or Down” value in data set [1] (setting [6]) is listed as “Up”. The “Mean Fold Change” value in data set [1] (setting [7]) is reported as 1.517.
In the case of Complement component C9, in data set [1] (setting [6]), the “Up or Down” value is on record as “Up”.
Take “Neutrophil defensin 1: alpha defensin, urinary biomarker candidate”: the “Up or Down” value in data set [1] (setting [6]) is listed as “Up”. Besides, the “Mean Fold Change” value in data set [1] (setting [7]) turned out to be 3.046.
Take `COc1ccc(Cc2nccc3cc(OC)c(OC)cc23)cc1OC` [Vasorin]: the “Up or Down” value in data set [1] (setting [6]) is “Up”. Further, the “Mean Fold Change” value in data set [1] (setting [7]) came out at 1.359.
With “G-protein coupled receptor family C group 5 member C”, the “Up or Down” value in data set [1] (setting [3]) is given as “Down”. Also, the “Mean Fold Change” value in data set [1] (setting [4]) came out at 1.059.
For the molecule “Latent-transforming growth factor beta-binding protein 2”, the “Up or Down” value in data set [1] (setting [6]) is “Up”. In addition, the “Mean Fold Change” value in data set [1] (setting [7]) came to 2.421.
On to Ig gamma-1 chain C region, for which the “Up or Down” value in data set [1] (setting [6]) was “Up”. In data set [1] (setting [7]), the “Mean Fold Change” value came to 2.454.
As to Hemicentin-1, the “Up or Down” value in data set [1] (setting [3]) is “Down”. The “Mean Fold Change” value in data set [1] (setting [4]) came to 1.331.
The corresponding values for Collagen alpha-1(VI) chain are “Down” and 1.543.
Regarding Ig heavy chain V-III region BUT, the “Up or Down” value in data set [1] (setting [6]) is on record as “Up”.
Regarding Complement component C8 gamma chain, in data set [1] (setting [6]), the “Up or Down” value is “Up”. Also, the “Mean Fold Change” value in data set [1] (setting [7]) amounted to 101.8623.
For Haptoglobin the same measures were “Up” and 1.16.
On to Pappalysin-2, for which, in data set [1] (setting [3]), the “Up or Down” value is given as “Down”. For the same molecule, the “Mean Fold Change” value in data set [1] (setting [4]) was found to be 1.573.
For the molecule ADM, the “Up or Down” value in data set [1] (setting [6]) is reported as “Up”. In addition, the “Mean Fold Change” value in data set [1] (setting [7]) is 2.795.
Regarding Complement component C7, the “Up or Down” value in data set [1] (setting [6]) was “Up”. For the same molecule, in data set [1] (setting [7]), the “Mean Fold Change” value was found to be 5.992.
Take Ig kappa chain V-I region Scw: in data set [1] (setting [6]), the “Up or Down” value is reported as “Up”. In data set [1] (setting [7]), the “Mean Fold Change” value is reported as 2.197.
As for Dipeptidyl peptidase 1, in data set [1] (setting [3]), the “Up or Down” value is “Down”. Further, in data set [1] (setting [4]), the “Mean Fold Change” value amounted to 1.102.
The corresponding values for Platelet factor 4 are “Down” and 1.19.
As for Plasma protease C1 inhibitor, the “Up or Down” value in data set [1] (setting [6]) was “Up”. The “Mean Fold Change” value in data set [1] (setting [7]) is 5.904.
For “Guanylin (PGTCEICAYAACTGC; Guanylin; UniProt Q02747 101-115, looked up)” the same measures were “Up” and 1.503.
For Apolipoprotein A-II the same measures were “Up” and 18.93.
The corresponding values for Hemoglobin subunit delta are “Up” and 3.555.
On to Ig kappa chain V-IV region Len, for which the “Up or Down” value in data set [1] (setting [3]) is on record as “Down”. In data set [1] (setting [4]), the “Mean Fold Change” value is on record as 1.345.
Take “Alpha-1-acid glycoprotein 1: urinary protein, Uniprot P02763”: the “Mean Fold Change” value in data set [1] (setting [5]) and in data set [1] (setting [7]) was 2.51 each time. In data set [1] (setting [6]), the “Up or Down” value is on record as “Up”. Also, the “Mean No RRT” value in data set [1] was 44.94 normalized spectral counts. Further, the “Mean RRT” value in data set [1] is 112.82 normalized spectral counts.
As for Tenascin-X, in data set [1] (setting [3]), the “Up or Down” value is recorded as “Down”. In data set [1] (setting [4]), the “Mean Fold Change” value is reported as 1.027.
Take “Apolipoprotein A-1: urinary protein, Uniprot P02647”: the “Mean Fold Change” value in data set [1] (setting [5]) is reported as 8.529. For the same molecule, in data set [1], the “Mean No RRT” value is 2.39 normalized spectral counts and the “Mean RRT” value was 20.36 normalized spectral counts.
CD27 antigen: the “Up or Down” value in data set [1] (setting [3]) is “Down”. Besides, the “Mean Fold Change” value in data set [1] (setting [4]) amounted to 2.179.
